The record followed here is the supplement of paper PMC12823440, “Inhibitors supercharge kinase turnover through native proteolytic circuits” (Nature, 2025).

Counter-ions that a name gives are not always drawn. The list shows a part of the results. The calls rarely recur for the same compound in another form.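 Kinases, fused to nanoluciferase, were expressed in K562 cells; luminescence was measured every 4 h from 2 to 18 h as percent of control (DMSO = 100%, positive control = 0%). A time point is decreased if signal falls significantly (2 sigma). Hits were called by the authors by a rule that is not shown; the count of time points alone does not decide it.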

In this experiment the target is SYK (UniProt P43405). Kind of experiment: number of time points (of 5) at which kinase-Nluc abundance scored as decreased, DMSO-normalised (count); higher = more persistent destabilization. The settings on record: K562; 2-18 h.
As to `C[C@@H]1COCCN1c1nc(-c2cnc(N)cc2C(F)F)nc(N2[C@H](C)COC[C@@H]2C)n1` (2.5 µM), the “number of time points” value is 0. Then `O=C(O)c1cc(=O)c2c(OCC(O)COc3cccc4oc(C(=O)O)cc(=O)c34)cccc2o1` [Cromolyn (sodium)] (10 µM), with 0; and `CCc1ccc(OCC(=O)Nc2ccc(F)c([N+](=O)[O-])c2)cc1` (10 µM), with 0.

As to `CC(C)S(=O)(=O)c1ccc2nccc(Nc3ccc4scnc4c3)c2c1` (10 µM), the “number of time points” value was 0.

As for `CN1CC[C@@H](c2c(O)cc(O)c3c(=O)cc(-c4ccc(C(F)(F)F)cc4Cl)oc23)[C@@H]1CO` [Voruciclib (hydrochloride)] (10 µM), the “number of time points” value amounted to 0.

Turning to `CC(C)=CC(=O)O[C@H]1Cc2cc3ccc(=O)oc3cc2OC1(C)C` [Decursin] (10 µM), the “number of time points” value came to 0. Take `CC(C)C[C@@H](C(=O)Nc1ccn(C[C@@H](O)CO)n1)N1CC(Oc2ccccc2Cl)=CC1=O` [Dorzagliatin] (10 µM): the “number of time points” value stood at 0.

Consider `CC(C)N1CCN(c2ccc(Nc3ncc4cc5n(c4n3)C3(CCCCC3)CNC5=O)nc2)CC1` [Lerociclib (dihydrochloride)] (2 µM), for which the “number of time points” value came out at 0. Consider `CCCCCCCCCCCCCCCCOP(=O)([O-])OCC[N+](C)(C)C` [Miltefosine] (10 µM), for which the “number of time points” value came out at 0.

As to `COCCNc1cc(NC(=O)N2CCCc3cc(CN4CCN(C)CC4=O)c(C=O)nc32)ncc1C#N` [Roblitinib] (10 µM), the “number of time points” value turned out to be 0. Then `Cc1ccc(NC(=O)c2ccc(CN(CCN(C)C)C(=O)c3cccnc3)cc2)cc1Nc1nccc(-c2cccnc2)n1` [PDGFRα kinase inhibitor 1] (10 µM), with 0. The result for `c1ccc(-c2nc(=NCCN3CCOCC3)sn2-c2ccccc2)cc1` [VP3.15 (dihydrobromide)] (10 µM) reads 0; that for `O=C1NC(=Nc2c(Cl)cccc2Cl)S/C1=C\c1ccc2nccnc2c1` (2.5 µM), 0; that for `Cc1cc(-c2ccnc(Nc3cnn(C)c3)n2)ccc1CNC(=O)N1CC(OC(C)C)C1` (10 µM), 0. As to `CN(C)S(=O)(=O)c1ccc2c(c1)/C(=C/c1cc3c([nH]1)CCCC3)C(=O)N2` (2.5 µM), the “number of time points” value was 0. The result for `Cc1cnc(NC2CCOCC2)nc1-n1cnc(C(=O)N[C@H](CN)c2cc(F)cc(Cl)c2)c1` (10 µM) reads 0. Then `N#CC(c1ccnc(OCc2ccc(CN3CCOCC3)cc2)n1)c1nc2ccccc2s1` (stereo not drawn) [Bentamapimod] (2.5 µM), with 0; and `Cc1c(-c2ccc(C(N)=O)c3[nH]c4cc(C(C)(C)O)ccc4c23)cccc1-n1cnc2ccccc2c1=O` (2.5 µM), with 0. The result for `CN(C)c1nc2c(Br)c(Br)c(Br)c(Br)c2[nH]1` (10 µM) reads 0; that for `Nc1ncnc2c1c(-c1ccc(Oc3ccccc3)cc1)nn2C1CCN(CCOCCOCCOc2ccc3c(c2)CN(C2CCC(=O)NC2=O)C3=O)CC1` (stereo not drawn) (2.5 µM), 0; that for `O=[N+]([O-])c1ccc(Nc2nc(N3CCOCC3)nc(N3CCOCC3)n2)cc1` (10 µM), 0. Consider `C[C@H](Nc1ncnc2[nH]cnc12)c1cc2ccc(F)cc2nc1-c1ccccn1` (10 µM), for which the “number of time points” value was found to be 0.

Take `CCc1cccc(CC)c1NC(=O)N1Cc2[nH]nc(NC(=O)c3ccc(N4CCN(C)CC4)cc3)c2C1` (2.5 µM): the “number of time points” value worked out at 0.

As for `CCc1cncnc1N1CCN(Cc2nc3ccc(C(F)(F)F)cc3[nH]2)CC1` (10 µM), the “number of time points” value stood at 0. With `COc1cc(-c2cn[nH]c2)ccc1C(=O)Nc1ccc2c(c1)CCNCC2` (10 µM), the “number of time points” value turned out to be 0. Consider `Cn1cc2cc(C(F)(F)c3nnc4ccc(-c5cnn(C6CC6)c5)nn34)c(F)cc2n1` [Bozitinib] (10 µM), for which the “number of time points” value was 0. The result for `O=Nc1c2[nH]c3ccccc3nc-2c2ccccc12` [IQ-1S (free acid)] (2.5 µM) reads 0.

As to `CCN(CC)c1cc2oc(=O)c(-c3nc4ccccc4o3)cc2cc1C` (2.5 µM), the “number of time points” value is 0. Then `COc1cc(N2CCOCC2)ccc1NC(=O)c1csc(-c2cccnc2)n1` [IRAK inhibitor 6] (10 µM), with 0. Then `CNc1nc(Nc2cn(C(C)(C)C#N)nc2C)ncc1C(F)(F)F` (10 µM), with 0; and `COc1nn(C)cc1Nc1nccc(-c2c[nH]c3c(NC(=O)[C@@H](C)N4CCN(C)CC4)cccc23)n1` (10 µM), with 0; and `N#Cc1ccnc(Nc2cc(C3CCN(C4COC4)CC3)cc(N3CCC(F)(F)C3)n2)c1` (2.5 µM), with 0. Turning to `Cc1cccc2c3c(ccc12)C(=O)C1=C(OCC1C)C3=O` (stereo not drawn) [Dihydroisotanshinone I] (2.5 µM), the “number of time points” value is 0.

Regarding `CNc1nc(Nc2ccc(C(=O)N3CCOCC3)cc2OC)ncc1Cl` (2.5 µM), the “number of time points” value came to 0. The result for `CCN(CC)c1ccc2cc(-c3nc4cc(C)ccc4o3)c(=O)oc2c1` (10 µM) reads 0; that for `COc1ccccc1C(=O)/C=C/c1ccccc1C(=O)O` (10 µM), 0. In the case of `CC(=O)N1CCC(c2cc(-c3ccc(NC(=O)c4cccn(-c5ccc(F)cc5)c4=O)cc3F)c3c(N)ncnn23)CC1` (0.5 µM), the “number of time points” value was found to be 0.

With `O[C@@H]1CO[C@H]2[C@@H]1OC[C@H]2Oc1nc2nc(-c3ccc(-c4ccccc4)cc3)c(Cl)cc2[nH]1` (10 µM), the “number of time points” value came out at 0.
